The values below come from article PMC8269069.

Amino acid sequences for entries named in this document (tags omitted).
UniProt P47941: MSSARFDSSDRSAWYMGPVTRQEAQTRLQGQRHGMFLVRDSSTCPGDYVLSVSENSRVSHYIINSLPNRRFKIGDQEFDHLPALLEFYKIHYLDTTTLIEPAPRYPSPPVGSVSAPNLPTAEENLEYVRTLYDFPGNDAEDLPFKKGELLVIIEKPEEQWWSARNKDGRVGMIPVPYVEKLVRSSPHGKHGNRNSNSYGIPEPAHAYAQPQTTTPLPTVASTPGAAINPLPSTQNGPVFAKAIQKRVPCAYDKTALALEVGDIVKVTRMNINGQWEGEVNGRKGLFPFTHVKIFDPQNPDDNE
UniProt Q08775: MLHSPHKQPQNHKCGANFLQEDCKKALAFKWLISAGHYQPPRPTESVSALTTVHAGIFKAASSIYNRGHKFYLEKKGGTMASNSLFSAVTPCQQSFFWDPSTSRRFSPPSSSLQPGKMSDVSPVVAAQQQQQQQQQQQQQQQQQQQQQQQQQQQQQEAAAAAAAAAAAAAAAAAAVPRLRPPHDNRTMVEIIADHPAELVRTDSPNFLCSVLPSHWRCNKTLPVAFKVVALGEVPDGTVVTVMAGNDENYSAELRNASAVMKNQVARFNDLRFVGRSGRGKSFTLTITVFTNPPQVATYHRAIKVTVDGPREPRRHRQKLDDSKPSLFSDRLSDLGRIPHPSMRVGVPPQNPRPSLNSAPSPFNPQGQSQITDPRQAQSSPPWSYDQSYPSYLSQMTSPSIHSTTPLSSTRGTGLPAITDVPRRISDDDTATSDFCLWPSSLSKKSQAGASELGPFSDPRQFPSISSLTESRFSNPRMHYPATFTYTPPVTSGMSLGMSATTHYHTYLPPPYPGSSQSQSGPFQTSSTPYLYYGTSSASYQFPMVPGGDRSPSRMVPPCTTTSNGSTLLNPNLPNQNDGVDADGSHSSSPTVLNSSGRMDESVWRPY

The assay addresses v-crk avian sarcoma virus CT10 oncogene homolog-like (CrkL) (UniProt P47941). Kind of assay: co-IP; HEK-293T cells transfected with Runx2 or Runx2 and CrkL for 2 days; NP-40 lysis buffer (150 mM NaCl, 1 mM EDTA, 1% NP-40, 50 mM Tris-HCl pH 8.0); immunoprecipitation overnight with anti-FLAG M2 antibody and protein G; blots against FLAG and Runx2.

Results are given in words; binding and its absence hold for the method and conditions named. Binding seen in cells or lysates may run through a third protein. Some results given as binding are weak or reduced against the parent protein; the word gives no strength.

On to “runt-related transcription factor 2 (Runx2) (from UniProt Q08775 1-607)”, for which the binding result is listed as “binds”.
